No constants are given. Whether binding was seen depends on the method and setting.
Target: human frataxin, C-terminal domain, variant hFXN90–210 (human) (UniProt Q16595)
Test: AUC; sedimentation velocity, 20 °C, 42,000 rpm, absorbance optics; 1.0, 0.5 and 0.25 mg/mL protein; 10 mM Tris-HCl, 100 mM NaCl, pH 7.0; c(s) and non-interacting species analysis (SEDFIT); both purified

Chains of the proteins cited; added tags and fusions are not shown. Lines headed by an entry give the natural chain unless they say otherwise; changes in a name come on top. A line that says so, or that is headed by a name, gives the form on record, which may keep a tag or linker.
human frataxin, C-terminal domain, variant hFXN90–210 (Q16595, form named): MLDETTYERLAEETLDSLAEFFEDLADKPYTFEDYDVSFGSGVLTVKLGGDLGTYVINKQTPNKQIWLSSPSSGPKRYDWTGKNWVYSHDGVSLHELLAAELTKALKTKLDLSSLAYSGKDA

In the case of “human frataxin, C-terminal domain, variant hFXN90–210 (from UniProt Q16595 90-210) (domain or fragment)”, the binding is reported as “no binding (tested: 0.25 to 1.00 mg/mL)”.
